These results are taken from publication PMC9532426, “Autophagy induction promoted by m6A reader YTHDF3 through translation upregulation of FOXO3 mRNA”.

The chains behind the UniProt entries cited, without tags or fusion partners.
UniProt P29341: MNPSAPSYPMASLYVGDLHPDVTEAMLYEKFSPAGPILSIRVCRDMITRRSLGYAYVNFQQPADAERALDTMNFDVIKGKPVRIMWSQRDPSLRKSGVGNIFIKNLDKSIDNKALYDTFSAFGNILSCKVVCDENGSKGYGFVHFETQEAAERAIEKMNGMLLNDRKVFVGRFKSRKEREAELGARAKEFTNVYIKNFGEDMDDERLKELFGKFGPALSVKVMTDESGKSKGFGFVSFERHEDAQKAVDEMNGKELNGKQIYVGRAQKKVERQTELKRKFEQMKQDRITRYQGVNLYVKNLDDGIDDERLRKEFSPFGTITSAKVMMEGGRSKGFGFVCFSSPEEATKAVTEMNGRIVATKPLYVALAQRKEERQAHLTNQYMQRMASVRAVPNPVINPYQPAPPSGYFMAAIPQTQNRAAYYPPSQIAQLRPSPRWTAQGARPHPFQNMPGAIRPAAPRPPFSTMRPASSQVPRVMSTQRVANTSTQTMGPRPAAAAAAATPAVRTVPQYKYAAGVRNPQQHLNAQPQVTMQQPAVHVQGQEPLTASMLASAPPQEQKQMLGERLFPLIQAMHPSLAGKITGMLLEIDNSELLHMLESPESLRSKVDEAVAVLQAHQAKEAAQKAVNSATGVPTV
UniProt P23116: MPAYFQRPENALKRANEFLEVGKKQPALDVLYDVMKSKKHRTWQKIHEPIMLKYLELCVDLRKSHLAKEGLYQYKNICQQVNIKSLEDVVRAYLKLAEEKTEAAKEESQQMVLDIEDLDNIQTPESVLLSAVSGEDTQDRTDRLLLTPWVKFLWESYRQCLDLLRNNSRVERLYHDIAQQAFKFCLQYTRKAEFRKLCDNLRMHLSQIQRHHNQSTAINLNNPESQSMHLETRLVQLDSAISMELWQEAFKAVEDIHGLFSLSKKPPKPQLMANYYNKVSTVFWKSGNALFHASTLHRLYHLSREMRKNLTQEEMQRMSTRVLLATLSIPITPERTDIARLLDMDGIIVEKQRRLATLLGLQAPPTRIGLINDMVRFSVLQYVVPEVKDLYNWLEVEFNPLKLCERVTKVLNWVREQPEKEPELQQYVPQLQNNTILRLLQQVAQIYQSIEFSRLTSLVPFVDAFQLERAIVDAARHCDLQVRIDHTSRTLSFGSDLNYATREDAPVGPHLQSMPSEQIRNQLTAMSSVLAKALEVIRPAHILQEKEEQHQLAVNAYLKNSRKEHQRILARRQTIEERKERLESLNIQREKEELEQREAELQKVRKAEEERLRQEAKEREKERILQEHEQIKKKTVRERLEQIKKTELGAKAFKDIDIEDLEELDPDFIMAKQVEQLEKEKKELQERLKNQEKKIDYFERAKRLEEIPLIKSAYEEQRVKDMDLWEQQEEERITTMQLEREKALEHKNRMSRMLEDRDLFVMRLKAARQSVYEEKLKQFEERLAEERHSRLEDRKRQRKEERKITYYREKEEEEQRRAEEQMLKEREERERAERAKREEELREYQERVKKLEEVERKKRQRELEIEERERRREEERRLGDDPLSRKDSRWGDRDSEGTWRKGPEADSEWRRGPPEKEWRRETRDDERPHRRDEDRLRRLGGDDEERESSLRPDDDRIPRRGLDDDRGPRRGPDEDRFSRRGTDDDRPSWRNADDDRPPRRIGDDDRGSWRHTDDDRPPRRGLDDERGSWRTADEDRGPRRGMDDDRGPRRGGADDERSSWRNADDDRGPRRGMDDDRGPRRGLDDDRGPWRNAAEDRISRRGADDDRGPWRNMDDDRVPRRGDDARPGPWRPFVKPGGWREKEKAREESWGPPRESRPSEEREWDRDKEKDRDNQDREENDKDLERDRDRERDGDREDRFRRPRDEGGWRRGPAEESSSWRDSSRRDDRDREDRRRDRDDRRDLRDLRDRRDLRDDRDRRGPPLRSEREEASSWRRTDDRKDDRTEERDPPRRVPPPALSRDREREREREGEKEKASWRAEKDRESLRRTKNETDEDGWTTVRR
UniProt Q8BGD9: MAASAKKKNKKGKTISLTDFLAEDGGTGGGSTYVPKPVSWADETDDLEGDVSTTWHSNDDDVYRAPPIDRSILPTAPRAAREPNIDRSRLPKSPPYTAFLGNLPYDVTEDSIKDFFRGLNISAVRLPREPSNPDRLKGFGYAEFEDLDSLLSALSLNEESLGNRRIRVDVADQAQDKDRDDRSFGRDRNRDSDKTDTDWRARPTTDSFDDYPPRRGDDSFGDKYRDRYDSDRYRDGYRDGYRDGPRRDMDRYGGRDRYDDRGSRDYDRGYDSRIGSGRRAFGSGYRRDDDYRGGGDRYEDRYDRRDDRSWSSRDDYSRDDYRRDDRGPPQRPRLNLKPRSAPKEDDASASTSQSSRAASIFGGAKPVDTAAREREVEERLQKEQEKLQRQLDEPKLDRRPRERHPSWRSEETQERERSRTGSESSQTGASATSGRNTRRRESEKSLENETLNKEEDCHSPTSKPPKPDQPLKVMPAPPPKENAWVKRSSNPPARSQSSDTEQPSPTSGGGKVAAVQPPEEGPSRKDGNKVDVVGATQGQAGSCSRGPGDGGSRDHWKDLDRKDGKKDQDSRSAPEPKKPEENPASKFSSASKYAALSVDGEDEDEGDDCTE

For experiment [1], the target named is T1, YTHDF3 (mouse (endogenous in MEFs)) (UniProt Q8BYK6).
T1 sequence: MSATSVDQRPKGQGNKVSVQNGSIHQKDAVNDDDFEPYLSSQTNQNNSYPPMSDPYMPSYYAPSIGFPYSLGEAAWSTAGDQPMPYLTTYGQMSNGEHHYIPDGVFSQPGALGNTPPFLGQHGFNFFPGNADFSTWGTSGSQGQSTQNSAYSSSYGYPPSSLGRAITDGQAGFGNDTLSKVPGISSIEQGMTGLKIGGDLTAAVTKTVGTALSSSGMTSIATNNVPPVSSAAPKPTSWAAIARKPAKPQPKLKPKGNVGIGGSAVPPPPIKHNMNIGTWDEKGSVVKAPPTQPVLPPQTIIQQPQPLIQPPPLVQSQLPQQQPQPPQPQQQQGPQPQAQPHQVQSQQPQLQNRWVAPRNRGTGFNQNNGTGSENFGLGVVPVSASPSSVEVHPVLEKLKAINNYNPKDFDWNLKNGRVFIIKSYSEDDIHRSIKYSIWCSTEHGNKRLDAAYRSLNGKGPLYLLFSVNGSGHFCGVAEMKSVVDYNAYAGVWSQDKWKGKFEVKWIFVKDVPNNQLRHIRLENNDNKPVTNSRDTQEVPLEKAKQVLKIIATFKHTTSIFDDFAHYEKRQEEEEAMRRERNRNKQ
Nature of the experiment: co-IP; anti-YTHDF3 antibody (sc-377119) crosslinked to Protein A/G Plus Agarose, lysates of shNS and shYTHDF3 MEFs with or without nutrient deprivation, with or without RNase A added to lysates; immunoblot. (Immunoblotting shows a protein as a band on a membrane.)

Experiment [2] addresses PABP1 (mouse (endogenous in MEFs)) (UniProt P29341). The experiment is described as follows: co-IP; PABP1- or eIF4G2-immunoprecipitated lysates from MEFs with or without nutrient deprivation; immunoblot for YTHDF3.
Experiment [3] addresses T2, eIF4G2 (mouse (endogenous in MEFs)) (UniProt Q62448).
T2 sequence: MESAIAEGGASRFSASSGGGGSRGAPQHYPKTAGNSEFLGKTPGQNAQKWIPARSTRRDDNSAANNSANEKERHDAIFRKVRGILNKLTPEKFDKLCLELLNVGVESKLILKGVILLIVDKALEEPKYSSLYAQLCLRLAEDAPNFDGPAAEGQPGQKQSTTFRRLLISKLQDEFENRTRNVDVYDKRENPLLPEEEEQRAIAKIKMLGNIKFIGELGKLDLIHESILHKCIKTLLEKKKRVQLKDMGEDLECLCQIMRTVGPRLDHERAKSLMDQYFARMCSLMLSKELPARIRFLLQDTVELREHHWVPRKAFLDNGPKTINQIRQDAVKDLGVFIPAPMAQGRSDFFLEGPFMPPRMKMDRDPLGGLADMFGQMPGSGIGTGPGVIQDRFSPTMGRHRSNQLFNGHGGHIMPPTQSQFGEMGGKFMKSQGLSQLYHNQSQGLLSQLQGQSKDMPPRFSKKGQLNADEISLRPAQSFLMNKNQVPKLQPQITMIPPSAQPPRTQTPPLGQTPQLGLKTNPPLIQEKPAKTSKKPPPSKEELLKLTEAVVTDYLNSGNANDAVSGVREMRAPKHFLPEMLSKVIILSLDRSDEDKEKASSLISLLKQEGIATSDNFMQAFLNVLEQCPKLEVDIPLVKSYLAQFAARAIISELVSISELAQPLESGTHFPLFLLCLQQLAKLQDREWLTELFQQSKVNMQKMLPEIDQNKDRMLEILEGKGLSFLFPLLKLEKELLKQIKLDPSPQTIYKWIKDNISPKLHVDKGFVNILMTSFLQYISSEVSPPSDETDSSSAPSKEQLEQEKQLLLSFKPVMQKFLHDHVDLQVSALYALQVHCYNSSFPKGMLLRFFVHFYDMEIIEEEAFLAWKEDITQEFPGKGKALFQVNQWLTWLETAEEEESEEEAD
The experiment is described as above.

Results are given in words; binding and its absence hold for the method and conditions named. Binding seen in cells or lysates may run through a third protein. Some results given as binding are weak or reduced against the parent protein; the word gives no strength.

For the molecule eIF3a (from UniProt P23116 1-1344), the binding result in experiment [1] is “binds”. On the same count and under the same terms, with eIF4B (from UniProt Q8BGD9 1-611) the entry was “binds”.

B1: YTHDF3 (protein, UniProt Q8BYK6-1 1-585)
chain: MSATSVDQRPKGQGNKVSVQNGSIHQKDAVNDDDFEPYLSSQTNQNNSYPPMSDPYMPSYYAPSIGFPYSLGEAAWSTAGDQPMPYLTTYGQMSNGEHHYIPDGVFSQPGALGNTPPFLGQHGFNFFPGNADFSTWGTSGSQGQSTQNSAYSSSYGYPPSSLGRAITDGQAGFGNDTLSKVPGISSIEQGMTGLKIGGDLTAAVTKTVGTALSSSGMTSIATNNVPPVSSAAPKPTSWAAIARKPAKPQPKLKPKGNVGIGGSAVPPPPIKHNMNIGTWDEKGSVVKAPPTQPVLPPQTIIQQPQPLIQPPPLVQSQLPQQQPQPPQPQQQQGPQPQAQPHQVQSQQPQLQNRWVAPRNRGTGFNQNNGTGSENFGLGVVPVSASPSSVEVHPVLEKLKAINNYNPKDFDWNLKNGRVFIIKSYSEDDIHRSIKYSIWCSTEHGNKRLDAAYRSLNGKGPLYLLFSVNGSGHFCGVAEMKSVVDYNAYAGVWSQDKWKGKFEVKWIFVKDVPNNQLRHIRLENNDNKPVTNSRDTQEVPLEKAKQVLKIIATFKHTTSIFDDFAHYEKRQEEEEAMRRERNRNKQ
B1: the binding result in experiment [2] and in experiment [3] was “binds” throughout.
